Measured values taken from patent US4929602A, “Method of inhibiting platelet dependent arterial thrombosis” (Scripps Clinic and Research Foundation, priority 1988, dated 1990).
Like-named read-outs stand apart in the source and are kept apart here. Part of at least one peptide drawing is inferred or uncertain, most often the ends.

Tests used:
[1] = test system: carotid endarterectomy sites; assay: Carotid endarterectomy in 14 baboons, 111In-platelet deposition and endarterectomy to blood ratio (Example 2B); assay type: in vivo, baboon; conditions: 90 min after surgery; 100 nmol/kg/min iv about 1 hour
[2] = test system: platelets; assay: Platelet aggregation in citrated platelet-rich plasma (agonist concentration for half maximal aggregation); assay type: cell-based, baboon
[3] = test system: hollow fiber dialyzer fiber bundle; assay: Hollow fiber dialyzer in A-V shunt, dialyzer fiber volume and 111In-platelet deposition (Example 3B); assay type: in vivo, baboon; conditions: after each use; heparin 100 U/kg + 15 U/kg/hour; PPACK 100 nmol/kg per min
[4] = test system: Hemostatic Function; assay type: in vivo, baboon
Procedure: After continuous infusion of a | given dose for 15 minutes (min.), the template bleeding time measurement | was begun and blood was drawn for thrombin time determinations. Escalatio | to the next dose was undertaken only after the bleeding time measurement | had been completed. The results are expressed as means ± one standard | deviation.

[5] = test system: primate model of vascular graft thrombosis; assay: Dacron vascular graft thrombosis in baboon A-V shunt: 111In-platelet deposition, graft occlusion, platelet count, plasma PF4/BTG/FPA; assay type: in vivo, baboon (Papio anubis); conditions: for plasma BTG / plasma FPA / plasma PF4 / platelet count: PPACK-Treated
[6] = Blood and plasma determinations during dialyzer exposure (APTT, FPA, fibrinogen, cell counts, bleeding time, PF4, βTG, C3a); assay type: in vivo, baboon
Procedure: PPACK or standard heparin (from porcine intestinal mucosal, Invenex Laboratories, Chagrin Falls, Ohio) was infused into the arterial limb of the vascular shunt immediately proximal to the dialyzer.
Blood cell counts (platelets, white blood cells, and red blood cells) were performed on disodium EDTA anticoagulated whole blood using a J. T. Baker whole blood analyzer Model 810 (Allentown, Pa.). Hanson et al., J. Clin. Invest. 75:1591-99 (1985); and Hanson et al., Arteriosclerosis, 5:595-603 (1985). Standard template bleeding times, were performed on the shave volar surface of the forearm in a manner as described in Harker et al., New. Eng. J. Med., 287:155-59 (1972) and Malpass et al., Blood, 57:736-40 (1981). Bleeding times were done in duplicate and averaged. Commercially available radioimmunometric assays were carried out to measure plasma levels of platelet factor 4 (PF4) (Abbott Laboratories, North Chicago, Ill.), β-thromboglobulin (βTG) (Amersham Corporation, Arlington Heights, Ill.), fibrinopeptide A (FPA) (MICRO USA Inc., New York, N.Y.) and activated complement C3 antigen (C3a) (Amersham Corp.). Blood samples for these plasma assays were collected, processed and determined as described in the procedures of Example 1 and in Malpass et al., ibid. and Hanson et al., Arterosclerosis, 5:595-603 (1985). […] (APTT) were performed using a standard method (Activated PTT reagent, Ortho Diagnostics, Raritain, N.J.). A fibrometer (Fibrosystem, Division of Becton and Dickinson and Co., Cockeysville, […].) was used for endpoint clot detection as described in Biggs, R., Human Blood Coagulation, Haemostasis and Thrombosis, Oxford, Blackwell Scientific, pages 657-750 (1976). Fibrinogen was determined by a total clottable protein method described by Jacobsson K., Scand. J. Clin. Lab. Invest., 7(Suppl. 14):9-54 (1955).

[7] = test system: cuprophane capillary flow dialyzer prosthetic surface; assay: Hollow fiber hemodialyzer in A-V shunt, dialyzer volume loss (Example 3A); assay type: in vivo, baboon; conditions: PPACK 100 nmol/kg/min iv vs heparin 150 U/kg bolus + 150 U/kg/hour
[8] = Template bleeding time and platelet count in carotid endarterectomy study (Example 2B); assay type: in vivo, baboon
Procedure: […] The mean platelet count was 318±70×10^3 /μl in the control group and 296±53×10^3 /μl in the treated group.
Bleeding time measurements were performed in duplicate on the shaved volar surface of the forearm, using the standard template method as previously described for studies in baboons. Harker et al., Blood, 58:824-834 (1980).

[9] = molecular target: T1, thrombin (Bos taurus, UniProt P00735); assay: Thrombin time after adding PPACK to baboon plasma in vitro; assay type: biochemical; conditions: PPACK added to baboon plasma in vitro
T1 construct: purchased Parke-Davis

[10] = During PPACK (100 nmol/kg/min), agonist concentration for half maximal aggregation
[11] = 15 nmol/kg/min iv, after 15 min infusion
[12] = 30 nmol/kg/min iv, after 15 min infusion
[13] = 60 nmol/kg/min iv, after 15 min infusion
[14] = 100 nmol/kg/min iv, after 15 min infusion

N=C(N)NCCC[C@H](NC(=O)[C@@H]1CCCN1C(=O)[C@H](N)Cc1ccccc1)C(=O)CCl [PPACK, D-phenylalanyl-L-propyl-L-arginyl-chloromethyl ketone]
acute platelet deposition on the endarterectomy sites [1]: 1.59±0.36 ×10^8 platelets/cm
PPACK concentration at which thrombin-induced platelet aggregation was abolished [2]: ≥ 3.2±0.1 mh=g/L
platelet aggregation induced by collagen or ADP [2]: not inhibited
aggregation (ED50): ADP [2, 10]: 2300 ± 300 nM
aggregation (ED50): collagen [2, 10]: 2.6 ± 0.3 µg/mL
aggregation (ED50): thrombin [2, 10]: > 20 U/ml
dialyzer fiber bundle volume (DFV) [3]: preserved DFV
Bleeding Time [4, 11]: 7.6 ± 1.6 min
Thrombin Time [4, 11]: 19 ± 3 s
Bleeding Time [4, 12]: 9.5 ± 4.2 min
Thrombin Time [4, 12]: 22 ± 2 s
Bleeding Time [4, 13]: 26.6 ± 3.4 min
Thrombin Time [4, 13]: 279 ± 132 s
Bleeding Time [4, 14]: > 30 min
Thrombin Time [4, 14]: > 600 s
Bleeding Time ([4]; After PPACK (15 min)): 5.9 ± 2.6 min
D-dimer ([4]; After PPACK (15 min)): 0.53 ± 0.13 mg/L
Thrombin Time ([4]; After PPACK (15 min)): 19 ± 1 s
fibrinogen ([4]; After PPACK (15 min)): 3.75 ± 0.35 gm/L
plasminogen ([4]; After PPACK (15 min)): 174 ± 7 mg/L
Bleeding Time ([4]; During PPACK (100 nmol/kg/min)): > 30 min
D-dimer ([4]; During PPACK (100 nmol/kg/min)): 0.49 ± 0.08 mg/L
Thrombin Time ([4]; During PPACK (100 nmol/kg/min)): > 600 s
fibrinogen ([4]; During PPACK (100 nmol/kg/min)): 3.80 ± 0.33 gm/L
plasminogen ([4]; During PPACK (100 nmol/kg/min)): 163 ± 8 mg/L
time for bleeding times and thrombin times to largely normalize after discontinuing infusion ([4]; after PPACK infusion): ≤ 15 min
thrombin times ([4]; infusion of PPACK at 100 nmol/kg/min): > 10 min
plasma BTG ([5]; Graft): 1.4 ± 0.2 µg/L
plasma FPA ([5]; Graft): 2.0 ± 0.54 nmol/L
plasma PF4 ([5]; Graft): 4.4 ± 0.2 µg/L
platelet count ([5]; Graft): 269 ± 54 × 10^9 /L
plasma BTG ([5]; Pre-Graft): 8.0 ± 2.0 µg/L
plasma FPA ([5]; Pre-Graft): 19.0 ± 4.7 nmol/L
plasma PF4 ([5]; Pre-Graft): 7.1 ± 1.9 µg/L
platelet count ([5]; Pre-Graft): 275 ± 56 × 10^9 /L
time to resumption/normalization of graft platelet deposition after discontinuing PPACK ([5]; after 60 min infusion at 100 nmol/kg/min): 30 min
graft occlusion ([5]; continuous intravenous infusion 100 nmol/kg/min): prevented graft occlusion
release of PF4 or βTG from platelets or FPA into plasma ([5]; during PPACK administration): no detectable release
Bleeding Time [6]: 24.8 ± 1.9 min
Plasma βTG [6]: 11.5 ± 5.7 ng/mL
plasma PF4 [6]: 4.5 ± 0.7 ng/mL
APTT ([6]; heparin 100 U/kg bolus + 15 U/kg per hour, PPACK 100 nmol/kg per min): 139 ± 23 s
FPA ([6]; plasma): 1.8 ± 0.20 pmol/L
fibrinogen ([6]; plasma): 344 ± 14.0 mg/dL
dialyzer volume loss [7]: inhibited dialyzer volume loss significantly better than heparin
bleeding times ([8]; 30 min after discontinuing the infusion): 6.2 ± 1.3 min
template bleeding times ([8]; during infusion, 100 nmol/kg/min): > 30 min
concentration at which thrombin times prolonged sharply [9]: ≥ 6 uM/1
